The numbers were not newly measured in patent publication US8664237B2 (The Johns Hopkins University, priority 2008, dated 2014), which cites them from elsewhere.

Usually pIC50 stands for the negative decadic logarithm of the IC50, by convention in mol/L.

pIC50: −log10 of the molar value.

The subject of the series is 5-HT receptor. The settings on record: cited from earlier work.

Turning to `O=C(CCCN1CCC2(CC1)C(=O)NCN2c1ccccc1)c1ccc(F)cc1` [spiperone], for the setting “canine tracheal epithelia, another study”, the “effect on 5-HT effects (inhibited Na+ absorption, stimulated Cl- secretion)” value was “blocked those effects”. The pIC50 (read-out: IC50 for inhibiting 5-HT-stimulated Cl- secretion, previous study, excised dog trachea) is 6.44.
